In this test the target is MBP-fusion protein with the CT domain of IL1RAPL1 (mouse). As to the kind of experiment: pull-down; lysates of transfected HEK 293T cells incubated with amylose resins coupled to purified MBP-fusion proteins of IL1RAPL1 domains; immunoblotting with anti-FLAG or anti-Myc antibody; only the target purified. In general terms: Immunoblotting shows a protein as a band on a membrane.

Among the data in publication PMC3681934 are binding values, retold here.

These are yes or no findings as the source states them, for the method shown. In cells and extracts the contact can be indirect. Binding can be weak; no strength is given. Tags and fused reporters may be left off the sequences shown.

B1: FLAG-Rasal1 (protein, UniProt Q9Z268 1-799)
chain: MAKSGSLSIRVVEGRALPAKDVSGSSDPYCLVKVDDQVVARTATIWRSLSPFWGEEYTVHLPLDFHHLAFYVLDEDTVGHDDIIGKISLSKEAITADPRGIDSWINLSRVDPDAEVQGEVCLDVKLLEDARGRCLRCHVRQARDLAPRDISGTSDPFARVFWGNHSLETSTIKKTRFPHWDEVLELREAPGTTSPLRVELWDWDMVGKNDFLGMVEFTPQTLQQKPPNGWFRLLPFPRAEDSGGSLGALRLKVRLTEDRVLPSQYYQPLMELLLESVQGPAEEDTTSPLALLEELASGDCRQDLATKLVKLFLGRGLAGPFLDYLTRREVARTNDPNTLFRSNSLASKSMEQFMKLVGMRYLHEVLRPVISRVFEEKKYMELDPCKMDLNRSRRISFKGTPTEEQVRETSLGLLTGYLGSVVDAIVSSTGRCPLALRLAFKQLQRCVEKRFSGIEHQDVKYLAISGFLFLRFFAPAILTPKLFDLRDQHADPQTSRSLLLLAKAVQSIGNLGQQLGQGKEQWLAPLHPFLLQSISRVRDFLDQLVDVDEDEEAGGPACALVQPSTIVREGFLLKRKEEPGGLATRFAFKKRYFRLSGRDLSYSKTPEWQVHTSIPLSCIRAVEHVDEGAFQLPHVMQVVTQDGAGTSHTTYLQCKNVNDLNQWLSALRKASAPNPGKLVACHPGAFRSGRWTCCLQAERSAAGCSRTHSAITLGDWSDPLDPDAEAQAVYRQLLLGRDQLRLKLLEDSSLDTEVDPGRDSSATDGPCAEVLAQQRAATTHLLQVLEDLEQAHEEFQKRG
With B1, the binding result is listed as “binds”.

B2: myc-SNIP (protein, UniProt Q9QWI6 1-1250)
chain: MQPWQCLRRFALAWWERTAEGRARSPREEVGPRDPGGRGEPDPERSSPPMLSADDAEYPREYRTLGGGGGGGSGGRRFSNVGLVHTSERRHTVIAAQSLEALSGLQKADADRKRDAFMDHLKSKYPQHALALRGQQDRMREQVGGWTVDPVCLLSSLCSHLHGDSTPSGAGQPAQQPNYWSFKTRSSRHTQGAQPGLADQAAKLSYASAESLETMSEAELPLGFSRMNRFRQSLPLSRSASQTKLRSPGVLFLQFGEETRRVHITHEVSSLDTLHALIAHMFPQKLTMGMLKSPNTAILIKDEARNVFYELEDVRDIQDRSIIKIYRKEPLYAAFPGSHLTNGDLRREMVYASRESSPTRRLNNLSPASHLASSSPPPGLPSGLPSGLPSGSPSRSRLSYAGGRPPSYAGSPVHHAAERLGGAPTGQGVSPSPSAILERRDVKPDEDLAGKAGGMVLVKGEGLYADPYGLLHEGRLSLAAAAETHSHTRARAACTSGVPCALSAPTPLPRCSPTWRTRCTRRALAALYGDGYGFRLPPSSPQKLADVSAPSGGPPPPHSPYSGPPSRGSPVRQSFRKDSGSSSVFAESPGGKARSTGSASTAGAPPSELFPGPGERSLVGFGPPVPAKDTETRERMEAMEKQIASLTGLVQSALLRGSEPETPSEKVEGSNGAATPSAPVCGSGSKSSGATPVSGPPPPSASSTPAGQPTAVSRLQMQLHLRGLQNSASDLRGQLQQLRNVQLQNQESVRALLKPTEADVSMRVSEAARRQEDPLQRQRTLVEEERLRYLNDEELITQQLNDLEKSVEKIQRDVAHNHRLMPGPELEEKALVLKQLGETLTELKAHFPGLQSKMRVVLRVEVEAVKFLKEEPQRLDGLLKRCRGVTDTLAQIRRQVDEGMWPPPNNLLNQSPKKVAAETDFSKGLDFEIPPPSPPLNLHELSGPAEGTPLTPKSTNPTKCLDASSKRNTDKAVSVEAAERDWEEKRAALTQYSAKDINRLLEETQAELLKAIPDLDCASKTHPGPAPTPDHKPPKAPHGQKAAPRTEPSGRRGSDELTVPRYRTEKPSKSPPPPPPRRSFPSSHGLTTTRTGEVVVTSKKDSVFIKKAESEELEVQKPQVKLRRAVSEVVRPASTPPIMASAIKDEDDEERIIAELESGGSSVPPMKVVTPGASRLKAAQGPAGSPDKGKHGKQRTEYMRIQAQQQATKPSKEVSGPNETSSPGSEKPSGSRTSIPVLTSFGARNSSISF
On to B2, for which the binding result is given as “binds”.

B3: myc-PLCβ1 (enzyme, UniProt Q9Z1B3 1-1216)
chain: MAGAQPGVHALQLKPVCVSDSLKKGTKFVKWDDDSTIVTPIILRTDPQGFFFYWTDQNKETELLDLSLVKDARCGKHAKAPKDPKLRELLDVGNIGHLEQRMITVVYGPDLVNISHLNLVAFQEEVAKEWTNEVFSLATNLLAQNMSRDAFLEKAYTKLKLQVTPEGRIPLKNIYRLFSADRKRVETALEACSLPSSRNDSIPQEDFTPDVYRVFLNNLCPRPEIDNIFSEFGAKSKPYLTVDQMMDFINLKQRDPRLNEILYPPLKQEQVQVLIEKYEPNSSLAKKGQMSVDGFMRYLSGEENGVVSPEKLDLNEDMSQPLSHYFINSSHNTYLTAGQLAGNSSVEMYRQVLLSGCRCVELDCWKGRTAEEEPVITHGFTMTTEISFKEVIEAIAECAFKTSPFPILLSFENHVDSPKQQAKMAEYCRLIFGDALLMEPLEKYPLESGVPLPSPMDLMYKILVKNKKKSHKSSEGSGKKKLSEQASNTYSDSSSVFEPSSPGAGEADTESDDDDDDDDCKKSSMDEGTAGSEAMATEEMSNLVNYIQPVKFESFEISKKRNKSFEMSSFVETKGLEQLTKSPVEFVEYNKMQLSRIYPKGTRVDSSNYMPQLFWNAGCQMVALNFQTVDLAMQINMGMYEYNGKSGYRLKPEFMRRPDKHFDPFTEGIVDGIVANTLSVKIISGQFLSDKKVGTYVEVDMFGLPVDTRRKAFKTKTSQGNAVNPVWEEEPIVFKKVVLPSLACLRIAAYEEGGKFIGHRILPVQAIRPGYHYICLRNERNQPLTLPAVFVYIEVKDYVPDTYADVIEALSNPIRYVNLMEQRAKQLAALTLEDEEEVKKEADPGETSSEAPSETRTTPAENGVNHTASLAPKPPSQAPHSQPAPGSVKAPAKTEDLIQSVLTEVEAQTIEELKQQKSFVKLQKKHYKEMKDLVKRHHKKTTELIKEHTTKYNEIQNDYLRRRAALEKSAKKDSKKKSEPSSPDHGSSAIEQDLAALDAEMTQKLIDLKDKQQQQLLNLRQEQYYSEKYQKREHIKLLIQKLTDVAEECQNNQLKKLKEICEKEKKELKKKMDKKRQEKITEAKSKDKSQMEEEKTEMIRSYIQEVVQYIKRLEEAQSKRQEKLVEKHNEIRQQILDEKPKLQTELEQEYQDKFKRLPLEILEFVQEAMKGKISEDSNHGSAPPSLASDAAKVNLKSPSSEEIERENPGREFDTPL
B3: the binding entry is “binds”.
